According to the supplement of paper PMC12889115:
This is one part of the list. Values are raw readings; no control value is given beside them.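 In the initial screen, polymyxin B was used at a concentration that permeabilizes Salmonella's outer membrane but not its inner membrane. Maximum growth was set by DMSO wells with or without polymyxin B. Since plates varied, data were ranked per plate, and compounds giving the lowest OD600 advanced as hits.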

Tested on: Salmonella enterica serovar Typhimurium SL1344
Test: bacterial growth OD600 after 18 h with compound and polymyxin B; higher = more bacterial growth (less inhibition)
Details: 50 µM, Mueller-Hinton broth

Row | Structure (SMILES) | bacterial growth OD600 (polymyxin B 0.75 µg/mL) | bacterial growth OD600 (polymyxin B 1 µg/mL)
1 | Cc1csc(SCC(=O)NCC2Cc3cc(F)cc(-c4cccnc4)c3O2)n1 (centres undefined) | 0.898 | 
2 | CN(C)C1CCN(C(=O)c2cccc(OC3CCN(C(=O)C4CC4)CC3)c2)C1 (centres undefined) |  | 1.08
3 | O=C(CC1(c2cccc(F)c2)CC(=O)N(C2CCCC2)C1=O)N1CCN(c2ccccc2)C(=O)C1 (centres undefined) | 0.963 | 
4 | COc1ccc(CN2CCCC(CNC(=O)c3cccs3)C2)c(F)c1 (centres undefined) |  | 0.931
5 | CCNC(=O)c1cn(CC(C)C)cc(C(=O)NCc2cccc(F)c2)c1=O | 0.678 | 
6 | COc1c(C)cc(C(=O)C2CCCN(Cc3nc4ccccc4[nH]3)C2)cc1C (centres undefined) |  | 0.58
7 | O[C@@H]1CN(C2Cc3ccccc3C2)CC[C@H]1N1CCN(c2ccccn2)CC1 |  | 0.898
8 | C=CCCC(=O)NC1CC(=O)N(CCc2ccc(F)cc2)C1 (centres undefined) |  | 1.01
9 | COc1ccccc1CCN1CCCC(CN(C)C(=O)Cn2cnc3ccccc3c2=O)C1 (centres undefined) |  | 0.942
